PubChem BioAssay AID485298 (National Center for Advancing Translational Sciences (NCATS), 2010)
Screen size: about 320,000 compounds; about 740 (0.23%) were called active. The inconclusive results got no clear call from the source; some entries with a clear call stand among them for comparison. The call rests on the fitted dose curve; in most records, active means well fitted activation curve with a large enough effect; inconclusive means small, poorly fitted or top-dose-only effect; inactive means no such curve, though single readings can be large or run the other way. Where the call is inconclusive, the potency comes from a doubtful curve fit.

Assay: qHTS Assay for Small Molecule Inhibitors of Mitochondrial Division or Activators of Mitochondrial Fusion; further: nearly all actives have a fitted effect of over 45% in size; on growth rescue (activation): % of control where 0% means no effect
Conditions: S. cerevisiae fusion-defective mutant growth rescue, CellTiterGlo 48 h; growth rescue (activation): at 46.1 µM (top of the series) unless noted
Procedure, shortened: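 S. cerevisiae fusion-defective temperature-sensitive mutants (e.g. fzo1-1, mgm1-5) grown 48 h at 37C in YPEG (ethanol/glycerol non-fermentable) medium with 23 nl compound per well; growth rescue read as CellTiterGlo luminescence.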
Potency means the concentration at half of the fitted maximal effect.

Row | Compound | Potency | growth rescue (activation)
1 | CC(C)(C)S(=O)(=O)c1cnc2c(S(=O)(=O)c3ccccc3)cnn2c1N | inconclusive: 35.5 µM [activator, single point] | 
2 | Cn1c(=O)c(NCCc2ccccc2)c2c3c(cccc31)C(=O)c1ccccc1-2 | inconclusive: 14.1 µM [activator, partial curve] | 
3 | Clc1cccc(-c2ccc3ncnc(NCc4ccc5c(c4)OCO5)c3c2)c1 | inconclusive: 35.5 µM [activator, single point] | 
4 | C=C1C(=O)[C@@]23[C@H](O)C[C@@H]4C(C)(C)CC[C@H](O)[C@@]4(C)[C@@H]2CC[C@@H]1[C@H]3O |  | inactive: 0.656%
5 | COc1ccc(-c2cc(C(=O)OCC(=O)c3cccc([N+](=O)[O-])c3)c3cc(C)ccc3n2)cc1 |  | inactive: -6.43%
6 | CCCCCCC(=O)c1c(C)[nH]c(C(=O)OCC)c1C | inconclusive: 14.1 µM [activator, single point] | 
7 | COc1ccccc1Cn1c(C(C)C)nc2ccccc21 |  | inactive: -0.0784%
8 | Cc1cc(C)n(-c2nc3ccccc3c(=O)n2OCc2ccc(F)cc2)n1 | inconclusive: 14.1 µM [activator, single point] | 
9 | COc1ccccc1N1CCN(C(c2ccc(Cl)cc2)c2nnnn2C(C)(C)C)CC1 (configuration not stated) | inconclusive: 7.08 µM [activator, partial curve] | 
10 | O=C(NCc1ccc(Cl)cc1)c1ccc(OCC2CCCO2)cc1 (configuration not stated) |  | inactive: -2.53%
11 | Cc1ccc(NC(=O)Nc2nnc(-c3ccncc3)s2)cc1C |  | inactive: 7.76%
12 | CCN(C(=O)c1cc2c(C)nc3ccccc3c2o1)c1cc(Cl)ccc1OC | inconclusive: 15.8 µM [activator, single point] | 
13 | COc1ccc(F)cc1S(=O)(=O)NCC(c1ccco1)N1CCc2ccccc2C1 (configuration not stated) | inconclusive: 20 µM [activator, single point] | 
14 | CCCCCC(=O)Nc1cccc2ccccc12 | inconclusive: 17.8 µM [activator, single point] | 
15 | O=c1cc(C(F)(F)F)[nH]c2c(OC(F)(F)F)cccc12 | inconclusive: 11.2 µM [activator, single point] | 
16 | COc1cccc(-c2ccc3ncnc(NCc4cccs4)c3c2)c1 | inconclusive: 12.6 µM [activator, single point] | 

Row | Compound | Potency | growth rescue (activation)
17 | Cc1ccc(-c2cc(-c3n[nH]c(=S)o3)c3ccccc3n2)cc1 | inconclusive: 11.2 µM [activator, partial curve] | 
18 | Cc1oc2ccc(OCc3cccc(Cl)c3)cc2c1C(=O)O | inconclusive: 12.6 µM [activator, partial curve] | 
19 | COc1ccc(C(=O)Oc2ccc(/C=N/O)cc2)cc1 |  | inactive: 3.43%
20 | Cc1occc1C(=O)NC1CCCCCCC1 | inconclusive: 14.1 µM [activator, single point] | 
21 | CN(C)/C=C/C(=O)c1ccc(F)cc1 |  | inactive: 2.39%
22 | CC(CNC(=O)CN1C(=O)c2cccnc2Oc2ccc(Cl)cc21)c1ccccc1 (configuration not stated) | inconclusive: 0.562 µM [activator, full curve, poor fit] | 
23 | C=CCc1cccc(CNc2cnc3ccccc3c2)c1O |  | inactive: 0.409%
24 | CCOc1ccc(-n2nc3c(=O)n(CCN4CCCCC4)nc(C)c3c2C)cc1 |  | inactive: 1.58%
25 | Cc1ccc(S(=O)(=O)NCc2ccc(C(=O)NC3CC3)cc2)cc1 | inconclusive: 5.62 µM [activator, single point] | 
26 | S=C(NCc1ccccc1)NCc1ccco1 |  | inactive: -9.87%
27 | c1csc(CNc2ncnc3ccc(-c4ccc5c(c4)OCCO5)cc23)c1 | inconclusive: 20 µM [activator, single point] | 
28 | CCN(C(=O)N(CC)c1ccccc1)c1ccccc1 |  | inactive: 5.21%
29 | COc1ccc(OCC(=O)Nc2ccc(C(=O)Nc3ccccc3C(=O)O)cc2)cc1 |  | inactive: -0.822%
30 | COc1ccc(S(=O)(=O)N2CCN(C(=O)C3CC3)CC2)cc1 | inconclusive: 2 µM [activator, partial curve] | 
31 | O=C(NC(=S)Nc1ccccc1N1CCCCC1)c1ccccc1 |  | inactive: -2.65%
32 | CCCc1noc(-c2ccc(-c3ccccc3)cc2)n1 |  | inactive: -4.28%

Two records drawn at random from those above:
Row | Compound | Potency | growth rescue (activation)
32 | CCCc1noc(-c2ccc(-c3ccccc3)cc2)n1 |  | inactive: -4.28%
9 | COc1ccccc1N1CCN(C(c2ccc(Cl)cc2)c2nnnn2C(C)(C)C)CC1 (configuration not stated) | inconclusive: 7.08 µM [activator, partial curve] | 
